Test results from PubChem BioAssay AID2685 (National Center for Advancing Translational Sciences (NCATS), 2010).
The list shows a part of the results. The main result of the screen is listed elsewhere. These columns were measured beside it and carry no call. The list favours compounds with an active or inconclusive main result. Potencies come from curve fits of mixed quality, noted in brackets.

Assay: qHTS Assay for Lipid Storage Modulators in Drosophila S3 Cells;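 on cell number change: cells counted by Cell Tracker Red CMTPX staining in the red channel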
Conditions: BODIPY lipid droplet fluorescence, 18-24 h; for cell number change: measured here: cell count max response, cells fed with added oleic acid
Method in brief: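 Drosophila S3 cells got compounds at several concentrations plus oleic acid (400 uM solution). Laser-scanning cytometry with 488 nm excitation read lipid droplets at 500-530 nm and cells at 575-640 nm. Percent activity was relative to 20 uM Triacsin C.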

[1] = measured here: lipid fluorescence (Fed channel) AC50, cells fed with added oleic acid
[2] = measured here: cell number channel AC50, cells fed with added oleic acid

Structure (SMILES) | cell number change | AC50 [1] | AC50 [2]
CCOc1ccc(N(CC(=O)N/N=C(\C)c2cccc(NC(C)=O)c2)S(=O)(=O)c2ccccc2)cc1 | 9.47% | 0.103 µM [rising, full curve, poor fit] | 
CCCn1c(=O)[nH]c(=O)c2c(C(F)(F)F)cc(-c3ccc(C)cc3)nc21 | -13.3% | 5.17 µM [falling, single point] | 2.06 µM [falling, partial curve, poor fit]
CN(Cc1ccc(Cl)cc1)C(=O)c1ccc2ccccc2n1 | 2.63% |  | 
CCOc1ccc(C(C(=O)NCCOC)N(CCOC)C(=O)CCC(=O)Nc2ccccn2)cc1 (centres undefined) | -19.7% |  | 
COc1ccc(N2CCN(C(c3ccc4ncccc4c3)c3nnnn3C(C)(C)C)CC2)cc1 (centres undefined) | 12.8% | 0.651 µM [rising, single point] | 
COc1ccc(S(=O)(=O)Nc2ccccc2-c2nc3ccccc3[nH]c2=O)cc1 | 4.17% | 8.2 µM [falling, single point] | 
CC(C)c1ccc(-c2noc(C3CCCN(S(C)(=O)=O)C3)n2)cc1 (centres undefined) | -22.2% |  | 
O=C(CSCc1cccc(Br)c1)N1CCOCC1 | 4.74% |  | 
CCC(C)c1ccc(O)c(NC(=S)NC(=O)c2cccnc2)c1 (centres undefined) | -6.56% |  | 
Cc1ccc(NC(=O)CS(=O)CC(=O)NC2CCN(Cc3ccccc3)CC2)c(C)c1 (centres undefined) | -30.1% |  | 2.31 µM [falling, single point]
CCCCCCN(C(=O)CCCCCN1C(=O)NC(c2ccc(Cl)cc2)C(C(=O)OCc2ccccc2)=C1C)C(C(=O)NCCCC)c1ccc(OCC(=O)OC)c(C(=O)OC)c1 (centres undefined) | 25% | 14.6 µM [rising, single point] | 
CCCCOc1ccc(N2C(=O)CC(N(CCc3ccccc3)C(=O)/C=C/C(=O)O)C2=O)cc1 (centres undefined) | 23.4% | 4.11 µM [falling, full curve, poor fit] | 
COC(=O)Cn1cnc2c(nnn2-c2ccc(F)cc2)c1=O | 4.32% | 5.8 µM [rising, full curve, poor fit] | 
O=C(CSc1oc(-c2ccco2)nc1S(=O)(=O)c1ccc(F)cc1)NCC1CCCO1 (centres undefined) | -19.6% | 18.4 µM [falling, single point] | 
CCCCN(C(=O)CC1CCCC1)c1c(N)n(CC(C)C)c(=O)[nH]c1=O | 18.3% | 29.1 µM [rising, single point] | 
Cc1ccc(C)c(NC(=O)C2CC(=O)N(C(C)C)C2)c1 (centres undefined) | 26.2% | 29.1 µM [rising, single point] | 
CC(C)OC(=O)CSc1nnc(-c2ccc(Cl)cc2Cl)n1N | 14% | 0.651 µM [falling, single point] | 
CCOc1ccc(OCC)c(S(=O)(=O)N2CCCCC2)c1 | -11.2% |  | 
COc1ccccc1NC(=O)N(Cc1ccccc1)c1ccccn1 |  | 8.2 µM [rising, partial curve] | 6.51 µM [rising, single point]
CC(OC(=O)Cc1coc2cc3c(cc12)CCC3)C(=O)NC(N)=O (centres undefined) | 30.1% |  | 9.2 µM [rising, single point]
O=C1CCCC(O)=C1C=Nc1ccc2c(c1)oc1ccccc12 | 11.9% | 4.11 µM [rising, single point] | 

Structure (SMILES) | cell number change | AC50 [1] | AC50 [2]
COc1ccc(-c2cc(=O)oc3cc(OCC(=O)NCCN4CCOCC4)ccc23)cc1 | 29.8% |  | 
CCN(CC(=O)NCc1ccc(F)cc1)C(=O)c1ccc(Cl)cc1 | 16.7% | 2.59 µM [rising, full curve] | 
CCOC(=O)CC(=O)CSc1nc2c(sc(=S)n2-c2ccc(C)c(C)c2)c(=O)[nH]1 | -12.7% |  | 2.31 µM [rising, partial curve, poor fit]
COc1ccc(CN2CCNC(=O)C2CC(=O)NCCc2cnccn2)cc1C (centres undefined) | 2.49% |  | 
COc1ccc(NC(=O)N(Cc2cc3cc(C)ccc3[nH]c2=O)CC2CCCO2)cc1 (centres undefined) | 19.2% | 0.231 µM [rising, full curve, poor fit] | 
Cn1c(=O)c2cc(S(=O)(=O)NCCC(=O)NCC3CCCO3)ccc2n(C)c1=O (centres undefined) |  | 6.51 µM [falling, single point] | 6.51 µM [falling, single point]
O=C(CNC(c1ccccc1)c1ccccc1)Nc1ccccc1-c1ccccc1 | -18.1% | 18.4 µM [falling, single point] | 
CCCOC(=O)C1[C@H]2C(=O)N(C(C)c3ccc(OC)cc3)C[C@]23C=C[C@H]1O3 (some centres undefined) | 19.5% |  | 0.92 µM [rising, full curve, poor fit]
COc1ccc(CNC(=O)CN(Cc2ccc(OC)cc2)C(=O)CCC(=O)Nc2ccccn2)cc1 | 28.2% |  | 1.84 µM [rising, full curve, poor fit]
O=C(c1ccco1)N1CCN(C(=O)c2ccc(-c3cccc(C(F)(F)F)c3)o2)CC1 | -44.4% | 29.1 µM [falling, single point] | 32.6 µM [falling, single point]
O=C(Cn1c(=O)sc2ccccc21)Nc1ccc(S(=O)(=O)N2CCCC2)cc1 | 53.4% | 20.6 µM [rising, partial curve] | 11.6 µM [rising, partial curve]
O=C(NCCN1CCOCC1)c1cc([N+](=O)[O-])ccc1Cl | 8.8% | 29.1 µM [rising, single point] | 
COc1cccc(C2C(C(=O)c3cccs3)=C(O)C(=O)N2CCN2CCOCC2)c1OC (centres undefined) | 12.5% |  | 
CC1CCCN(C(=O)c2ccc(COc3ccccc3Br)cc2)C1 (centres undefined) | -42.4% |  | 1.64 µM [falling, partial curve]
Cc1ccc(CNC(=O)Cn2cnc3c(NC(=O)OCc4ccccc4)ncnc32)o1 | -20.1% | 0.116 µM [falling, full curve, poor fit] | 0.517 µM [falling, partial curve]
CCCNc1ccc(S(=O)(=O)N(C(C)C)C(C)C)cn1 | 14.7% | 29.1 µM [rising, single point] | 
Cc1cc(C)n2nc(-c3ccccc3)c(-c3ccccc3)c2n1 | -2.65% |  | 
COc1ccccc1OCCNC(=O)CN1C(=O)NC2(CCCC2)C1=O | -50% |  | 29.1 µM [falling, single point]
CCOc1ccc2[nH]cc(C(=O)NCc3ccccc3)c(=O)c2c1 | -19.4% | 29.1 µM [falling, single point] | 
COc1ccc(C(=O)/C(=C\c2ccco2)N2C=CC=CC2=C(C#N)C#N)cc1 | -62.1% | 14.6 µM [falling, partial curve] | 29.1 µM [falling, single point]
CCCCNC(=O)c1cn(CC)c2cc(N3CCN(C(=O)c4ccco4)CC3)c(F)cc2c1=O | 11.5% |  | 

Structure (SMILES) | cell number change | AC50 [1] | AC50 [2]
CCC(C)NC(=O)CCn1ccc2cc(S(=O)(=O)N3CCCC3)ccc21 (centres undefined) | 16.4% | 29.1 µM [rising, single point] | 
Cc1cccc2nc(CSc3nc4ccccc4o3)cn12 | 24.3% | 4.11 µM [rising, full curve] | 
CCCCOCCCNC(=O)c1ccc(OC)cc1 |  |  | 5.17 µM [falling, partial curve, poor fit]
CCN(CC)c1ccc(NS(=O)(=O)c2cn(C)c(=O)n(C)c2=O)c(C)c1 | -26.2% |  | 
CCP(=O)(c1ccccc1)C(C)(C)O (centres undefined) | -34.6% | 18.4 µM [falling, single point] | 16.4 µM [falling, single point]
COc1ccc(O)c(CN2CCCC(N3CCc4ccccc4C3)C2)c1 (centres undefined) | 19.5% | 29.1 µM [rising, single point] | 
COc1ccccc1CNC(=O)[C@@H]1CCCN1S(=O)(=O)c1ccc(C)cc1 | 0.677% |  | 
COCc1cc(Sc2c(Cl)cccc2Cl)nc(-c2ccccc2)n1 | -24.2% |  | 
Cc1ccc(-c2noc(CN(C(=O)c3cccc(Br)c3)C(C)C)n2)cc1 | 6.72% | 0.0731 µM [rising, full curve, poor fit] | 
CC(C)Oc1ccc(C(CC(=O)O)NC(=O)Cc2ccc(Cl)cc2)cc1 (centres undefined) | -2.95% | 20.6 µM [rising, single point] | 
O=C(CN(Cc1ccc(Cl)cc1)C(=O)c1csnn1)NCc1ccc(F)cc1 | 8.97% |  | 
O=C(CCc1ccncc1)NC1CCCc2c1cnn2-c1cc(F)cc(F)c1 (centres undefined) |  | 29.1 µM [rising, single point] | 
NC(=O)c1nc(C(=O)N2CCN(c3ccccc3)CC2)c2ccccc2n1 | 16% | 0.0058 µM [falling, full curve, poor fit] | 
CC(C)C(=O)Nc1ccc(Cl)cc1-c1nc2ccccc2[nH]c1=O |  | 0.103 µM [falling, full curve, poor fit] | 
Cn1nnnc1SCC(=O)c1c(N)n(C2CC2)c(=O)[nH]c1=O | 5.91% |  | 
COc1ccc2c(c1)C(=O)N(c1ccccc1C)C(=O)C2(C)C | 63.8% |  | 5.8 µM [rising, full curve]
Cc1ccc(-c2nc(-c3ccncc3)no2)cc1C | -28% |  | 
Cc1cccn2c(=O)c(C(=O)NC3CCCCC3C)c(O)nc12 (centres undefined) | -26.9% | 20.6 µM [falling, single point] | 3.66 µM [falling, full curve, poor fit]
Clc1ccc(Cc2nc(-c3cccnc3)no2)cc1 | 10.3% | 29.1 µM [rising, single point] | 
O=C(CCCOc1ccc(Cl)cc1Cl)N/N=C/c1ccc(Cl)cc1 | -67.8% | 16.4 µM [falling, single point] | 14.6 µM [falling, partial curve]
CC1=CC(C)(C)Nc2ccc(OC(=O)C(Cc3ccccc3)N3C(=O)c4ccccc4C3=O)cc21 (centres undefined) | 22.8% | 1.3 µM [rising, full curve] | 
